Source: PubChem BioAssay AID1224830 (NIAID, 2016)
The whole screen tested about 18,000 reagents; below is an unselected part. About 2,900 of all reagents (16%) were called active. 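Calls are made per well; low scores hint the gene aids the LPS response, high scores that it dampens it.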 Repeated entries: four replicate wells of each siRNA pool.

Purpose: 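Regulators of TLR4 signalling towards TNF-alpha in macrophage-like cells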 (primary screen)
Cells: human THP-1 monocytic leukaemia cells, TNF dual-luciferase reporter clone, PMA-differentiated to macrophage-like cells
Knock-down reagent: siRNA pool against human genes, 50 nM
Timing: LPS for 4 h, given about 3 days after siRNA transfection
Challenge: bacterial LPS (TLR4 ligand), 10 ng/ml
Measured: 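Ratio of firefly to renilla light, scaled to the plate median and expressed as a robust z-score per replicate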
Direction: TNF reporter robust z-score: higher = stronger TNF reporter response to LPS
Active means: 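Each well counts as active if its z-score is over 2.8 or under -1.5; controls are left without a call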

TRIM59 (tripartite motif containing 59) scored TNF reporter robust z-score 1.34; inactive. TRIM59 (tripartite motif containing 59) showed TNF reporter robust z-score -0.24; inactive. Knock-down of TRIM59 (tripartite motif containing 59) came out at: TNF reporter robust z-score 1.44; inactive. TRIM59 (tripartite motif containing 59) gave TNF reporter robust z-score 1.8; inactive. PTPRA (protein tyrosine phosphatase receptor type A) showed TNF reporter robust z-score 0.38; inactive. With knock-down of PTPRA (protein tyrosine phosphatase receptor type A) the results were TNF reporter robust z-score 0.97; inactive.

After knock-down of PTPRA (protein tyrosine phosphatase receptor type A), the screen gave TNF reporter robust z-score 2.81; active. PTPRA (protein tyrosine phosphatase receptor type A) gave TNF reporter robust z-score 2.05; inactive. TMEM164 (transmembrane protein 164) gave TNF reporter robust z-score 0.82; inactive. Silencing of TMEM164 (transmembrane protein 164) came out at: TNF reporter robust z-score 2.68; inactive. Knock-down of TMEM164 (transmembrane protein 164) came out at: TNF reporter robust z-score 1.51; inactive. Against TMEM164 (transmembrane protein 164), the entry reads TNF reporter robust z-score 2.21; inactive.

UBN1 (ubinuclein 1) showed TNF reporter robust z-score -0.05; inactive. For UBN1 (ubinuclein 1) the deposit lists TNF reporter robust z-score 0.11; inactive. Silencing of UBN1 (ubinuclein 1) resulted in: TNF reporter robust z-score -0.08; inactive. For UBN1 (ubinuclein 1), the entry reads TNF reporter robust z-score -0.03; inactive. Silencing of RGS11 (regulator of G protein signaling 11) gave: TNF reporter robust z-score -0.39; inactive. RGS11 (regulator of G protein signaling 11) gave TNF reporter robust z-score 0.48; inactive.

Knock-down of RGS11 (regulator of G protein signaling 11) came out at: TNF reporter robust z-score -0.86; inactive. For RGS11 (regulator of G protein signaling 11), the values are TNF reporter robust z-score 1.02; inactive. After knock-down of PTGDR2 (prostaglandin D2 receptor 2) the results were TNF reporter robust z-score 0.03; inactive. PTGDR2 (prostaglandin D2 receptor 2) showed TNF reporter robust z-score -0.9; inactive. PTGDR2 (prostaglandin D2 receptor 2) gave TNF reporter robust z-score -0.91; inactive. Silencing of PTGDR2 (prostaglandin D2 receptor 2) gave: TNF reporter robust z-score -0.73; inactive.

TXNDC12 (thioredoxin domain containing 12) showed TNF reporter robust z-score 1.13; inactive. Silencing of TXNDC12 (thioredoxin domain containing 12) came out at: TNF reporter robust z-score 0.86; inactive. After knock-down of TXNDC12 (thioredoxin domain containing 12), the screen gave TNF reporter robust z-score 1.17; inactive. With knock-down of TXNDC12 (thioredoxin domain containing 12), the record shows TNF reporter robust z-score 3.09; active.

A run of entries taken from the entries so far, for reference:
PTGDR2 (prostaglandin D2 receptor 2) | TNF reporter robust z-score = -0.9; Call = inactive
PTGDR2 (prostaglandin D2 receptor 2) | TNF reporter robust z-score = -0.91; Call = inactive
PTGDR2 (prostaglandin D2 receptor 2) | TNF reporter robust z-score = -0.73; Call = inactive

Continued:
Silencing of FOXM1 (forkhead box M1) gave: TNF reporter robust z-score 0.06; inactive. Depletion of FOXM1 (forkhead box M1) came out at: TNF reporter robust z-score 0.24; inactive. FOXM1 (forkhead box M1) scored TNF reporter robust z-score -1.13; inactive. With knock-down of FOXM1 (forkhead box M1), the screen gave TNF reporter robust z-score -0.48; inactive. HAUS7 (HAUS augmin like complex subunit 7) showed TNF reporter robust z-score -0.23; inactive. For HAUS7 (HAUS augmin like complex subunit 7), the values are TNF reporter robust z-score 0.06; inactive.

With knock-down of HAUS7 (HAUS augmin like complex subunit 7), the record shows TNF reporter robust z-score 0.4; inactive. Against HAUS7 (HAUS augmin like complex subunit 7), the entry reads TNF reporter robust z-score -0.13; inactive. CYBA (cytochrome b-245 alpha chain) gave TNF reporter robust z-score -0.23; inactive. Knock-down of CYBA (cytochrome b-245 alpha chain) came out at: TNF reporter robust z-score 0.6; inactive. Silencing of CYBA (cytochrome b-245 alpha chain) gave: TNF reporter robust z-score 1.82; inactive. CYBA (cytochrome b-245 alpha chain) scored TNF reporter robust z-score 2.91; active.

MYH9 (myosin heavy chain 9) scored TNF reporter robust z-score 0.1; inactive. Depletion of MYH9 (myosin heavy chain 9) gave: TNF reporter robust z-score -0.11; inactive. MYH9 (myosin heavy chain 9) showed TNF reporter robust z-score -0.23; inactive. Silencing of MYH9 (myosin heavy chain 9) came out at: TNF reporter robust z-score 0.06; inactive. After knock-down of TLDC2 (TBC/LysM-associated domain containing 2) the results were TNF reporter robust z-score 0.34; inactive. Depletion of TLDC2 (TBC/LysM-associated domain containing 2) gave: TNF reporter robust z-score 0.15; inactive.

Knock-down of TLDC2 (TBC/LysM-associated domain containing 2) came out at: TNF reporter robust z-score 0.27; inactive.
